The values below come from PMC12518634, “The noncanonical function of liver-type phosphofructokinase potentiates the efficacy of HDAC inhibitors in cancer” (Signal Transduction and Targeted Therapy, 2025).

Test [1] relates to 1405R3. Briefly: High-throughput drug screen, CellTiter-Glo viability, 72 h. The class given is cell-based, human. Also on record: AUC: scale not given here. The note with it: 1405R3 DSRT analysis. The method, then: (§1) The cells were seeded and incubated with a gradient of concentrations of drugs for 72 h, after which the cell viability was assessed (Supplementary Fig. 1a). The drug library primarily comprises epigenetic drugs, including HDAC inhibitors, DNA methyltransferase inhibitors, and histone demethylase inhibitors, as well as conventional chemotherapies and kinase inhibitors (Supplementary Fig. 1b and Supplementary Table 1). […] To identify novel therapeutics against CCA, we conducted a high-throughput screen employing PerkinElmer’s integrated robotic Explorer G3 workstations. […] Following dilution to five specified concentrations, drugs were dispensed into 96-well plates in the sequence detailed in Supplementary Fig. 1a. The CCA cell lines were subsequently plated in 384-well plates at a density of 3000 cells per well in a 20 μL total volume. After a 24-h incubation, the compounds were added to the wells and incubated for 72 h. We then quantified cell viability via the CellTiter-Glo luminescent assay according to the manufacturer’s protocol. Signal detection was carried out on a Synergy2 plate reader operated by Gen5 software (BioTek). For data processing, the raw luminescence data were processed through the Breeze pipeline for curve fitting, yielding quality control metrics (e.g., Z-factors) and drug response parameters (AUC and DSS), as adapted from previous work.[54] Drug responses were evaluated on the basis of the drug sensitivity score (DSS), and a cutoff of ≥10 was used to define efficacy. The complete drug library and screening dataset are available in Supplementary Tables 1-3.
(§2) Supplementary Fig. 1. A high-throughput drug screen to identify drugs targeting CCA. a Schematic representation of the drug screening protocol. […] Each drug was tested at five different concentrations (10, 1, 0.1, 0.01, and 0.001 μM), and each treatment was replicated twice. b Classification of drugs used for screening.

For test [2], the system named is 783C-6. The description is as above. The note with it: 783C-6 cells. The test is classed as cell-based, human. The arrangement: AUC: scale not given here. As for the experimental part: as §1, §2
Where [3] appears, read: area under the dose-response curve.
Setting [4] is: slope of fitted dose-response curve.

Consider `Cc1ccc(C(=O)NCCCCCC(=O)Nc2ccccc2N)cc1` [RG2833], for which the AUC was 8.2 in test [1] (setting [3]) and 13.8 in test [2] (setting [3]). Moreover, the results for the DSS in test [1] (drug sensitivity score) and in test [2] (DSS of DSRT analysis) were 0.4 and 0.7, respectively. Further, the MIN in test [1] (lower asymptote of fitted dose-response curve) is given as 78.3; in test [2] (minimum of dose-response curve) it was 84.8. The SLOPE in test [1] (setting [4]) and in test [2] (setting [4]) was -2.5 in each case.
